These are yes or no findings as the source states them, for the method shown. For some of these results: Binding seen in cells or lysates may run through a third protein. Some entries that bind do so weakly or less than the wild type. Where a sequence is shown, tags or fusion partners need not be part of it.
T1: mito-mScarlet-DENND6A (human) (UniProt Q8IWF6)
T1 sequence: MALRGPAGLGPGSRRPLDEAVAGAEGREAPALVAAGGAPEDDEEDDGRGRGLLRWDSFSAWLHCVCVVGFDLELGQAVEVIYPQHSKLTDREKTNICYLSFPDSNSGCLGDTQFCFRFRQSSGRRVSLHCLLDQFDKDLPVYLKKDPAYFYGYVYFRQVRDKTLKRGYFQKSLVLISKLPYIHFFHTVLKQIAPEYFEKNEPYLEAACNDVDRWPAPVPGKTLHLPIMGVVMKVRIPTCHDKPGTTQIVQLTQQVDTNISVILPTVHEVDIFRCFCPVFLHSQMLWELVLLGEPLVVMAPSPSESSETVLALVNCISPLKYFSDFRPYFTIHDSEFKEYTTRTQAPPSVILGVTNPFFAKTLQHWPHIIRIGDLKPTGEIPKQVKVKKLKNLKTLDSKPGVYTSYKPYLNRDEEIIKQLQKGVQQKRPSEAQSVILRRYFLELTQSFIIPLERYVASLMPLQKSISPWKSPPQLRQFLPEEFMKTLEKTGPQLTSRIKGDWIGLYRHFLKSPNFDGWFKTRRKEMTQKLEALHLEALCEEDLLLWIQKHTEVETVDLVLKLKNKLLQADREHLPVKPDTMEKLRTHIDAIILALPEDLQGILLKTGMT

Chains of the proteins cited; added tags and fusions are not shown.
UniProt Q96NA2: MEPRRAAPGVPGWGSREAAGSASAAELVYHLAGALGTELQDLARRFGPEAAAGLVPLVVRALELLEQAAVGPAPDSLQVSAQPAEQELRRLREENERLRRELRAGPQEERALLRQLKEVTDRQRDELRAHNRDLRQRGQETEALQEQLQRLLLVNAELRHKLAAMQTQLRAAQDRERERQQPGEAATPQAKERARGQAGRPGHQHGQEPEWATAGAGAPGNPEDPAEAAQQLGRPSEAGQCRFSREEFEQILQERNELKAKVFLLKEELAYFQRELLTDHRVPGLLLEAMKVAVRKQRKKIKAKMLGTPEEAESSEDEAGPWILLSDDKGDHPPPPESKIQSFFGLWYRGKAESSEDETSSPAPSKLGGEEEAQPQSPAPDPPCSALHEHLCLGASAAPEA
UniProt P62491: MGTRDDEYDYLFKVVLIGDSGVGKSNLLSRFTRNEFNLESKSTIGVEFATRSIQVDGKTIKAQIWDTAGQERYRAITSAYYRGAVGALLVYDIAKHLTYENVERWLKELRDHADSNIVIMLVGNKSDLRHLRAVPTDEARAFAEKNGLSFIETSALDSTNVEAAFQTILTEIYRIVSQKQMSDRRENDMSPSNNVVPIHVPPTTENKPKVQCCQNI
UniProt Q92930: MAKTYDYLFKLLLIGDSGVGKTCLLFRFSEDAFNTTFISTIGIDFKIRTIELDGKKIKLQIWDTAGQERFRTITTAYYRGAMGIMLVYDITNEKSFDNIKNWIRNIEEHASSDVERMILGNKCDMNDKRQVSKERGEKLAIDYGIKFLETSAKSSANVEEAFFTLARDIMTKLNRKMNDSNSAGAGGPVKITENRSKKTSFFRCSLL
UniProt P61006: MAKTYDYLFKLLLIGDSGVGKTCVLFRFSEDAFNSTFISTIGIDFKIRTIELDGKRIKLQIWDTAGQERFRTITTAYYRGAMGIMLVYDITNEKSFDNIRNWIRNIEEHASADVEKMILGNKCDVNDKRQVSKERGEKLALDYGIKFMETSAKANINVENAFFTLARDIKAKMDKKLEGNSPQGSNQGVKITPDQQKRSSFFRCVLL

T2: GST-Rab34-T66N (UniProt Q9BZG1)
T2 sequence: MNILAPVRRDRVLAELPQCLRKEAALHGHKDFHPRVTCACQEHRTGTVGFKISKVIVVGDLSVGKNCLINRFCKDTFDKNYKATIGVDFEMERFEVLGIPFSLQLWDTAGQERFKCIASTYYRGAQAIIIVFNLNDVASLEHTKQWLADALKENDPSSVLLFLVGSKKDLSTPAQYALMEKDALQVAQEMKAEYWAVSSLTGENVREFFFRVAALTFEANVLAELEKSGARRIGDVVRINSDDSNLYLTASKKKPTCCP


Tests used:
[1] = target: T1, mito-mScarlet-DENND6A (human); experiment: mitochondrial recruitment assay in cells
[2] = target: T7-RILP (UniProt Q96NA2); experiment: pull-down
[3] = target: T2, GST-Rab34-T66N; experiment: pull-down

Row | binding [1] | binding [2] | binding [3] | Molecule
1 | binds |  |  | GFP-Rab11A (from UniProt P62491 1-216)
2 | binds |  |  | GFP-Rab22B (protein, UniProt Q13636 1-195) MMAIRELKVCLLGDTGVGKSSIVCRFVQDHFDHNISPTIGASFMTKTVPCGNELHKFLIWDTAGQERFHSLAPMYYRGSAAAVIVYDITKQDSFYTLKKWVKELKEHGPENIVMAIAGNKCDLSDIREVPLKDAKEYAESIGAIVVETSAKNAINIEELFQGISRQIPPLDPHENGNNGTIKVEKPTMQASRRCC
3 | binds |  |  | GFP-Rab39A (protein, UniProt Q14964 1-217) METIWIYQFRLIVIGDSTVGKSCLLHRFTQGRFPGLRSPACDPTVGVDFFSRLLEIEPGKRIKLQLWDTAGQERFRSITRSYYRNSVGGFLVFDITNRRSFEHVKDWLEEAKMYVQPFRIVFLLVGHKCDLASQRQVTREEAEKLSADCGMKYIETSAKDATNVEESFTILTRDIYELIKKGEICIQDGWEGVKSGFVPNTVHSSEEAVKPRKECFC
4 | binds |  |  | GFP-Rab25 (protein, UniProt P57735 1-213) MGNGTEEDYNFVFKVVLIGESGVGKTNLLSRFTRNEFSHDSRTTIGVEFSTRTVMLGTAAVKAQIWDTAGLERYRAITSAYYRGAVGALLVFDLTKHQTYAVVERWLKELYDHAEATIVVMLVGNKSDLSQAREVPTEEARMFAENNGLLFLETSALDSTNVELAFETVLKEIFAKVSKQRQNSIRTNAITLGSAQAGQEPGPGEKRACCISL
5 | binds |  |  | GFP-Rab43 (protein, UniProt Q86YS6 1-212) MAGPGPGPGDPDEQYDFLFKLVLVGDASVGKTCVVQRFKTGAFSERQGSTIGVDFTMKTLEIQGKRVKLQIWDTAGQERFRTITQSYYRSANGAILAYDITKRSSFLSVPHWIEDVRKYAGSNIVQLLIGNKSDLSELREVSLAEAQSLAEHYDILCAIETSAKDSSNVEEAFLRVATELIMRHGGPLFSEKSPDHIQLNSKDIGEGWGCGC
6 | binds |  |  | GFP-Rab22A (protein, UniProt Q9UL26 1-194) MALRELKVCLLGDTGVGKSSIVWRFVEDSFDPNINPTIGASFMTKTVQYQNELHKFLIWDTAGQERFRALAPMYYRGSAAAIIVYDITKEETFSTLKNWVKELRQHGPPNIVVAIAGNKCDLIDVREVMERDAKDYADSIHAIFVETSAKNAININELFIEISRRIPSTDANLPSGGKGFKLRRQPSEPKRSCC
7 | binds |  |  | GFP-Rab34 (protein, UniProt Q9BZG1 1-259) MNILAPVRRDRVLAELPQCLRKEAALHGHKDFHPRVTCACQEHRTGTVGFKISKVIVVGDLSVGKTCLINRFCKDTFDKNYKATIGVDFEMERFEVLGIPFSLQLWDTAGQERFKCIASTYYRGAQAIIIVFNLNDVASLEHTKQWLADALKENDPSSVLLFLVGSKKDLSTPAQYALMEKDALQVAQEMKAEYWAVSSLTGENVREFFFRVAALTFEANVLAELEKSGARRIGDVVRINSDDSNLYLTASKKKPTCCP
8 |  | binds |  | Rab34 (endogenous) (protein, UniProt Q9BZG1 1-259) MNILAPVRRDRVLAELPQCLRKEAALHGHKDFHPRVTCACQEHRTGTVGFKISKVIVVGDLSVGKTCLINRFCKDTFDKNYKATIGVDFEMERFEVLGIPFSLQLWDTAGQERFKCIASTYYRGAQAIIIVFNLNDVASLEHTKQWLADALKENDPSSVLLFLVGSKKDLSTPAQYALMEKDALQVAQEMKAEYWAVSSLTGENVREFFFRVAALTFEANVLAELEKSGARRIGDVVRINSDDSNLYLTASKKKPTCCP
9 | binds |  |  | GFP-Rab3B (protein, UniProt P20337 1-219) MASVTDGKTGVKDASDQNFDYMFKLLIIGNSSVGKTSFLFRYADDTFTPAFVSTVGIDFKVKTVYRHEKRVKLQIWDTAGQERYRTITTAYYRGAMGFILMYDITNEESFNAVQDWATQIKTYSWDNAQVILVGNKCDMEEERVVPTEKGQLLAEQLGFDFFEASAKENISVRQAFERLVDAICDKMSDSLDTDPSMLGSSKNTRLSDTPPLLQQNCSC

Second part, the molecule before the results:

Row | Molecule | binding [1] | binding [2] | binding [3]
10 | GFP-Rab8B (from UniProt Q92930 1-207) | binds |  | 
11 | GFP-Rab8A (from UniProt P61006 1-207) | binds |  | 
12 | GFP-Rab3C (protein, UniProt Q96E17 1-227) MRHEAPMQMASAQDARYGQKDSSDQNFDYMFKLLIIGNSSVGKTSFLFRYADDSFTSAFVSTVGIDFKVKTVFKNEKRIKLQIWDTAGQERYRTITTAYYRGAMGFILMYDITNEESFNAVQDWSTQIKTYSWDNAQVILVGNKCDMEDERVISTERGQHLGEQLGFEFFETSAKDNINVKQTFERLVDIICDKMSESLETDPAITAAKQNTRLKETPPPPQPNCAC | binds |  | 
13 | GFP-Rab19 (protein, UniProt A4D1S5 1-217) MHFSSSARAADENFDYLFKIILIGDSNVGKTCVVQHFKSGVYTETQQNTIGVDFTVRSLDIDGKKVKMQVWDTAGQERFRTITQSYYRSAHAAIIAYDLTRRSTFESIPHWIHEIEKYGAANVVIMLIGNKCDLWEKRHVLFEDACTLAEKYGLLAVLETSAKESKNIEEVFVLMAKELIARNSLHLYGESALNGLPLDSSPVLMAQGPSEKTHCTC | binds |  | 
14 | GFP-Rab32 (protein, UniProt Q13637 1-225) MAGGGAGDPGLGAAAAPAPETREHLFKVLVIGELGVGKTSIIKRYVHQLFSQHYRATIGVDFALKVLNWDSRTLVRLQLWDIAGQERFGNMTRVYYKEAVGAFVVFDISRSSTFEAVLKWKSDLDSKVHLPNGSPIPAVLLANKCDQNKDSSQSPSQVDQFCKEHGFAGWFETSAKDNINIEEAARFLVEKILVNHQSFPNEENDVDKIKLDQETLRAENKSQCC | binds |  | 
15 | GFP-Rab4B (protein, UniProt P61018 1-213) MAETYDFLFKFLVIGSAGTGKSCLLHQFIENKFKQDSNHTIGVEFGSRVVNVGGKTVKLQIWDTAGQERFRSVTRSYYRGAAGALLVYDITSRETYNSLAAWLTDARTLASPNIVVILCGNKKDLDPEREVTFLEASRFAQENELMFLETSALTGENVEEAFLKCARTILNKIDSGELDPERMGSGIQYGDASLRQLRQPRSAQAVAPQPCGC | binds |  | 
16 | GFP-Rab3D (protein, UniProt O95716 1-219) MASAGDTQAGPRDAADQNFDYMFKLLLIGNSSVGKTSFLFRYADDSFTPAFVSTVGIDFKVKTVYRHDKRIKLQIWDTAGQERYRTITTAYYRGAMGFLLMYDIANQESFAAVQDWATQIKTYSWDNAQVILVGNKCDLEDERVVPAEDGRRLADDLGFEFFEASAKENINVKQVFERLVDVICEKMNESLEPSSSSGSNGKGPAVGDAPAPQPSSCSC | binds |  | 
17 | DENND6A-GFP (protein, UniProt Q8IWF6 1-608) MALRGPAGLGPGSRRPLDEAVAGAEGREAPALVAAGGAPEDDEEDDGRGRGLLRWDSFSAWLHCVCVVGFDLELGQAVEVIYPQHSKLTDREKTNICYLSFPDSNSGCLGDTQFCFRFRQSSGRRVSLHCLLDQFDKDLPVYLKKDPAYFYGYVYFRQVRDKTLKRGYFQKSLVLISKLPYIHFFHTVLKQIAPEYFEKNEPYLEAACNDVDRWPAPVPGKTLHLPIMGVVMKVRIPTCHDKPGTTQIVQLTQQVDTNISVILPTVHEVDIFRCFCPVFLHSQMLWELVLLGEPLVVMAPSPSESSETVLALVNCISPLKYFSDFRPYFTIHDSEFKEYTTRTQAPPSVILGVTNPFFAKTLQHWPHIIRIGDLKPTGEIPKQVKVKKLKNLKTLDSKPGVYTSYKPYLNRDEEIIKQLQKGVQQKRPSEAQSVILRRYFLELTQSFIIPLERYVASLMPLQKSISPWKSPPQLRQFLPEEFMKTLEKTGPQLTSRIKGDWIGLYRHFLKSPNFDGWFKTRRKEMTQKLEALHLEALCEEDLLLWIQKHTEVETVDLVLKLKNKLLQADREHLPVKPDTMEKLRTHIDAIILALPEDLQGILLKTGMT |  | binds | binds
18 | GFP-Rab30 (protein, UniProt Q15771 1-203) MSMEDYDFLFKIVLIGNAGVGKTCLVRRFTQGLFPPGQGATIGVDFMIKTVEINGEKVKLQIWDTAGQERFRSITQSYYRSANALILTYDITCEESFRCLPEWLREIEQYASNKVITVLVGNKIDLAERREVSQQRAEEFSEAQDMYYLETSAKESDNVEKLFLDLACRLISEARQNTLVNNVSSPLPGEGKSISYLTCCNFN | binds |  | 

Source: paper doi:10.1101/2023.08.21.554162
